{"source": "PubChem BioAssay AID540276", "about": "(National Center for Advancing Translational Sciences (NCATS), 2011)", "note": "Screen size: about 300,000 compounds; about 5,400 (1.8%) were called active. The inconclusive results got no clear call from the source; some entries with a clear call stand among them for comparison. Calls follow the shape of the full dose curve; tested in HEK293 cells. Where the call is inconclusive, the potency comes from a doubtful curve fit. % is scaled to controls: 0 for no effect and ±100 for the full control effect; potency is read from the fitted curve at half-maximal effect."}
{"experiment": "qHTS for inhibitors of binding or entry into cells for Marburg Virus", "conditions": "Marburg virus pseudotyped entry inhibition, cell reporter; activity change, negative = inhibition: at 37.8 µM (top of the series) unless noted"}
{"smiles": "COc1ccc(NS(=O)(=O)c2cc(NC(=O)c3cnccn3)ccc2OC)cc1Br", "Potency": "inconclusive: 11.2 µM [inhibitor, partial curve, poor fit]"}
{"smiles": "COc1ccccc1C(=O)N/C(=N/c1nc(C)cc(C)n1)Nc1ccccc1", "Potency": "inconclusive: 22.4 µM [inhibitor, single point]"}
{"smiles": "CC(C)C(NC(=O)c1cccs1)c1nnc(SCC(=O)Nc2nccs2)n1C", "note": "(configuration not stated)", "Potency": "inactive"}
{"smiles": "CN(C)c1ccc(N/C=C/C(=O)c2ccccc2)cc1", "Potency": "inconclusive: 23.1 µM [inhibitor, partial curve, poor fit]"}
{"smiles": "CCN(Cc1cnn(C)c1)C(=O)c1ccc2nc(Cc3cccc(Cl)c3)oc2c1", "Potency": "inconclusive: 31.6 µM [inhibitor, single point]"}
{"smiles": "Oc1c(Cl)cc(Cl)cc1C=Nc1ccc2c(c1)OCCO2", "Potency": "inactive"}
{"smiles": "COc1ccc(C(=O)n2nc(-c3ccco3)nc2NCc2cccs2)cc1", "Potency": "inactive"}
{"smiles": "Cc1ccc2c(C(=O)CN3CCN(C4CCCCC4)CC3)c(C)[nH]c2c1", "Potency": "inconclusive: 10 µM [inhibitor, partial curve, poor fit]"}
{"smiles": "CCN(C(=O)COC(=O)c1ccc(S(=O)(=O)N2CCCc3ccccc32)cc1)C1CCS(=O)(=O)C1", "note": "(configuration not stated)", "Potency": "inactive"}
{"smiles": "CC(C)c1ccc(C(=O)NCCCc2ccccc2)cc1", "Potency": "inconclusive: 3.66 µM [activator, partial curve, poor fit]"}
{"smiles": "COc1ccc(NC(=O)C(OC(=O)c2ccc([N+](=O)[O-])o2)c2ccccc2)cc1Cl", "note": "(configuration not stated)", "Potency": "inactive"}
{"smiles": "CC1=CC(=O)NP(=O)(Oc2ccc3ccccc3c2)N1", "note": "(configuration not stated)", "Potency": "inactive"}
{"smiles": "COC(=O)c1ccccc1NC(=O)c1ccc(Cn2cc(Cl)cn2)o1", "Potency": "inconclusive: 17.8 µM [activator, single point]"}
{"smiles": "Cc1ccc(S(=O)(=O)N2CCCC(NC(=O)N3CCN(c4ccccc4)CC3)C2)cc1", "note": "(configuration not stated)", "Potency": "inconclusive: 35.5 µM [inhibitor, single point]"}
{"smiles": "CN=C(Nc1ccc(C(=O)OC)cc1)SC1CC(=O)N(c2ccccc2F)C1=O", "note": "(configuration not stated)", "Potency": "inconclusive: 35.5 µM [inhibitor, single point]"}
{"smiles": "O=C(CN1CCOCC1)c1ccc(Br)cc1", "Potency": "inactive"}
{"smiles": "Cc1nn(C(C)C)c(C)c1[C@@H]1C[C@H]2CN(Cc3cccc(Cl)c3)C(=O)[C@]23CCCN13", "Potency": "inconclusive: 11.2 µM [inhibitor, partial curve, poor fit]"}
{"smiles": "C/C(=N\\NC(=O)C1CCCN(S(=O)(=O)c2ccccc2)C1)c1ccccn1", "note": "(configuration not stated)", "Potency": "inconclusive: 3.16 µM [inhibitor, partial curve, poor fit]"}
{"smiles": "CCCCN1C(=O)C(=O)N(CC(=O)Nc2ccccc2C(=O)OCC)C1=O", "Potency": "inconclusive: 1.58 µM [activator, partial curve, poor fit]"}
{"smiles": "CCN(Cc1ccccc1)C(=O)COc1cc(=O)n(CC)c2ccccc12", "Potency": "inconclusive: 0.92 µM [inhibitor, full curve, poor fit]"}
{"smiles": "CCC1=Nc2cc(C(=O)NC3CCCC3)ccc2Sc2ccc(Br)cc21", "Potency": "inconclusive: 0.891 µM [inhibitor, full curve, poor fit]"}
{"smiles": "CC(C)OC(=O)c1c(NC(=O)C2CC=CCC2C(=O)O)sc2c1CCCCC2", "note": "(configuration not stated)", "Potency": "inconclusive: 3.16 µM [activator, partial curve, poor fit]"}
{"smiles": "CC(=O)c1ccc(N=Cc2c(O)n(-c3cc(Cl)ccc3N3CCOCC3)c(=O)c3ccccc23)cc1", "Potency": "inconclusive: 35.5 µM [inhibitor, single point]"}
{"smiles": "O=C(Nc1ncc(Cc2cc(Cl)ccc2Cl)s1)c1ccc([N+](=O)[O-])cc1", "Potency": "inconclusive: 4.11 µM [inhibitor, full curve, poor fit]"}
{"smiles": "Cc1ccc(-c2noc(CSc3nnc(CCc4ccccc4)n3-c3ccccc3)n2)cc1", "Potency": "inconclusive: 18.3 µM [inhibitor, single point]"}
{"smiles": "O=C(c1ccc([N+](=O)[O-])s1)N1CCN(c2ccc(C(F)(F)F)cn2)CC1", "Potency": "inactive"}
{"smiles": "Cc1ccc(NC(=O)CN(C)C(=O)COc2ccccc2-c2ccccc2)cc1", "Potency": "inconclusive: 7.08 µM [inhibitor, partial curve, poor fit]"}
{"smiles": "Cc1[nH]c(=O)c(C#N)c(C)c1CCC(=O)NCc1ccc(Cl)cc1", "Potency": "inconclusive: 0.562 µM [inhibitor, full curve, poor fit]"}
{"smiles": "CC(C)(C)c1csc(NC(=O)C2COc3ccccc3O2)n1", "note": "(configuration not stated)", "Potency": "inconclusive: 2.24 µM [activator, single point]"}
{"smiles": "O=C(COC(=O)c1cnccn1)NCc1ccc(Cl)cc1", "Potency": "inactive"}
{"smiles": "CN(CC(O)COc1ccc(S(=O)(=O)N2CCOCC2)cc1Cl)C1CCCCC1", "note": "(configuration not stated)", "Potency": "active: 10 µM"}
{"smiles": "CCCCN1C(=O)C(=O)N(CC(=O)Nc2cc(OCC)c(N3CCOCC3)cc2OCC)C1=O", "Potency": "inconclusive: 10 µM [activator, partial curve, poor fit]"}
{"smiles": "O=[N+]([O-])c1cc(CN2CCCC2)ccc1Sc1ccc(Cl)cc1", "Potency": "inconclusive: 12.6 µM [inhibitor, partial curve, poor fit]"}
{"smiles": "CC1CCN(C(CC(=O)c2ccccc2)C(=O)c2ccccc2)CC1", "note": "(configuration not stated)", "Potency": "inconclusive: 15.8 µM [inhibitor, single point]"}
{"smiles": "O=C(Nc1cnc2ccccc2c1)c1ccco1", "Potency": "inconclusive: 11.2 µM [inhibitor, single point]"}
{"smiles": "O=S(=O)(c1ccc(Cl)s1)N1CCc2ccccc2C1", "Potency": "inconclusive: 0.231 µM [activator, single point]"}
{"smiles": "CCN(CC)S(=O)(=O)c1cccc(S(=O)(=O)N2CCCCC2)c1", "Potency": "inactive"}
{"smiles": "CC1CN(S(=O)(=O)c2cccc(-c3cn4ccccc4n3)c2)CC(C)O1", "note": "(configuration not stated)", "Potency": "inconclusive: 0.0065 µM [inhibitor, full curve, poor fit]"}
{"smiles": "CC(=O)Nc1ccc(S(=O)(=O)N2CC3(C)CC2CC(C)(C)C3)cc1", "note": "(configuration not stated)", "Potency": "inconclusive: 17.8 µM [inhibitor, partial curve, poor fit]"}
{"smiles": "COc1ccccc1C(=O)NCCC(=O)Nc1ccc(OC(F)(F)F)cc1", "Potency": "inconclusive: 0.562 µM [activator, partial curve, poor fit]"}
{"smiles": "CCCCC(=O)Nc1ccc(C(=O)NNC(=S)NC(=O)c2cccs2)cc1", "Potency": "inconclusive: 35.5 µM [inhibitor, single point]"}
{"smiles": "C=Cn1cc[n+](CC(=O)c2ccc(C)cc2)c1", "Potency": "inconclusive: 2.82 µM [activator, partial curve, poor fit]"}
{"smiles": "O=C(/C=C/c1ccc(F)cc1)Nc1nc2n(n1)C(c1ccc(Cl)cc1)C=C(c1ccccc1)N2", "note": "(configuration not stated)", "Potency": "inconclusive: 20 µM [activator, single point]"}
{"smiles": "Oc1ccc(Br)cc1-c1n[nH]c(=S)n1Cc1ccccc1", "Potency": "inactive"}
{"smiles": "CCOC(=O)C1(Cc2cccc(OC)c2)CCN(Cc2cccnc2)CC1", "Potency": "inactive"}
{"smiles": "COc1cccc(C(=O)Nc2ccc(NC(C)=O)cn2)c1", "Potency": "inactive"}
{"smiles": "CCn1c(NC(=O)c2nn(C)cc2Br)nc2ccccc21", "Potency": "inconclusive: 14.1 µM [inhibitor, single point]"}
{"smiles": "COc1ccccc1C(=O)Nc1nc(-c2ccccc2)ns1", "Potency": "inconclusive: 1.12 µM [activator, full curve, poor fit]"}
{"smiles": "COc1ccccc1C(=O)NCCn1cc(SCc2ccccc2Cl)c2ccccc21", "Potency": "inconclusive: 4.47 µM [inhibitor, full curve, poor fit]"}
{"smiles": "CCOC(=O)c1nn(-c2ccc(Cl)cc2)c2nc(CC)c(C#N)c(=O)n12", "Potency": "inactive"}
{"smiles": "CCc1nnc(NC(=O)c2cc(C)nc3ccccc23)s1", "activity change, negative = inhibition": "inconclusive: 19.8% [activator] [at 46.1 µM]"}
{"smiles": "CC(C)CC(=O)N1CCN(c2ccc([N+](=O)[O-])c(NCc3ccccc3)c2)CC1", "Potency": "inconclusive: 35.5 µM [inhibitor, single point]"}
{"smiles": "O=C(CCS(=O)(=O)Cc1ccccc1)Nc1nc2c(s1)CCCC2", "Potency": "inconclusive: 10.3 µM [inhibitor, partial curve, poor fit]"}
{"smiles": "CCOc1ccc(/C=N/NC(=O)c2ccccc2O)cc1CN1CC2CC(C1)c1cccc(=O)n1C2", "note": "(configuration not stated)", "Potency": "inactive"}
{"smiles": "CC1=CC(C)(C)Nc2ccc(OC(=O)c3ccco3)cc21", "Potency": "inconclusive: 29.1 µM [inhibitor, single point]"}
{"smiles": "Cc1cc(C)c(S(=O)(=O)/N=C2/C=C(Sc3ncn[nH]3)C(=O)c3ccccc32)cc1C", "Potency": "active: 1.58 µM"}
{"smiles": "Cc1ccc(/C=[N+](/C)[O-])cc1", "Potency": "inactive"}
{"smiles": "CCOC(Cn1c(-c2ccc(OC)cc2)nc2ccccc21)OCC", "Potency": "inconclusive: 11.2 µM [inhibitor, single point]"}
{"smiles": "CC1CCc2[nH]c3ccc(C(=O)N(C)CC(=O)Nc4ccccc4C(F)(F)F)cc3c2C1", "note": "(configuration not stated)", "Potency": "inconclusive: 12.6 µM [inhibitor, single point]"}
{"smiles": "O=C(Nc1cccc(OC(F)(F)F)c1)c1ccc(Br)o1", "Potency": "inactive"}
{"smiles": "O=C(COC(=O)c1ccc(F)cc1F)Nc1cccc(S(=O)(=O)N2CCOCC2)c1", "Potency": "inactive"}
{"smiles": "COc1ccc(Cl)cc1NC(=O)CN(C)CC(=O)Nc1ccccc1N1CCOCC1", "Potency": "inconclusive: 39.8 µM [inhibitor, partial curve, poor fit]"}
{"smiles": "NC(=O)Cc1c[nH]c2cccc(O)c12", "Potency": "inactive"}
{"smiles": "CC(=C1SC(=S)NC1=O)c1ccccc1", "Potency": "inconclusive: 11.2 µM [activator, partial curve, poor fit]"}
{"smiles": "CCOc1ccccc1NC(=O)NCCn1c(=O)oc2ccc(C)cc21", "Potency": "inconclusive: 25.1 µM [inhibitor, single point]"}
{"smiles": "Cc1ccc(NC(=O)C2CC(=O)N(c3ccc4c(c3)OCCO4)C2)nc1", "note": "(configuration not stated)", "Potency": "inconclusive: 5.01 µM [activator, single point]"}
{"smiles": "Cc1cccc(NC(=O)/C=C/c2ccc(Cl)cc2)n1", "Potency": "inconclusive: 35.5 µM [inhibitor, single point]"}
